The target in this test is T1, ATF4 bZIP TAP construct (mouse) (UniProt Q06507).
T1 sequence: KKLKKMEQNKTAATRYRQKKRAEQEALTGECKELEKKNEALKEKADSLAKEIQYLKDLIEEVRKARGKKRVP
Nature of the test: affinity purification with mass spectrometry; tandem affinity purification of the FLAG- and S-tagged ATF4 bZIP domain expressed in mouse TA muscle fibers in vivo (16 mice, 7 days after transfection); pooled muscle extracts, anti-FLAG magnetic beads, elution with 3X-FLAG peptide, then S-protein agarose; 50 mM HEPES pH 7.0, 150 mM NaCl, 5 mM MgCl2, 2 mM EGTA, 0.1-0.5% Triton X-100, 4 °C; LC-MS/MS; two independent experiments; empty TAP construct as control.

No constants are given. Whether binding was seen depends on the method and setting. In cells and extracts the contact can be indirect. Here binding means that the protein was enriched with, or labelled near, the bait; the list need not be complete.

The text below walks through data of article PMC7049960.

B1: C/EBPδ (protein, UniProt Q00322 1-268)
chain: MSAALFSLDSPVRGTPWPTEPAAFYEPGRVDKPGRGPEPGDLGELGSTTPAMYDDESAIDFSAYIDSMAAVPTLELCHDELFADLFNSNHKAAGAGGLELLQGGPTRPPGVGSVARGPLKREPDWGDGDAPGSLLPAQVAVCAQTVVSLAAAAQPTPPTSPEPPRGSPGPSLAPGTVREKGAGKRGPDRGSPEYRQRRERNNIAVRKSRDKAKRRNQEMQQKLVELSAENEKLHQRVEQLTRDLAGLRQFFKKLPSPPFLPPTGADCR
Regarding B1, the binding entry was “binds”.

B2: leucine zipper protein 1 (LUZP1) (protein, UniProt Q8R4U7 1-1068)
chain: MAELTNYKDAASNRHLRFKLQSLSRRLDELEEATKNLQRAEDELLDLQDKVIQAEGSDSSTLAEIEVLRQRVLKIEGKDEEIKRAEDLCHTMKEKLEEEENLTRELKSEIERLQKRMVDLEKLEEALSRSKNECSQLCLSLNEERNLTKKISSELEMLRVKVKELESSEDRLDKTEQSLVSELEKLKSLTLSFVNERKYLNEKEKENEKIIKELTQKLEQNKKMNRDHMRNASTFLERNDLRIEDGISSTLSSKESKRKGSLDYLKQVENETRDKSENEKNRNQEDNKVKDLNQEIEKLKTQIKHFESLEEELKKMRAKNNDLQDNYLTELNRNRSLASQLEEIKLQVRKQKELGNGDIEGEDAFLLGRGRHERTKLKGHGSEASVSKHTSRELSPQHKRERLRNREFALSNEHYSLSSKQASSPVFTNKRAAKASNMGMGTDSGTQETKRTEDRFAPGSSHSEGKRGREQPSVLSRYPPAAQEHTKVWKGAPKPGTESGLKGKVEKTTRTFSDSTHVSVPNDIVGKGDKTSDLSSEAHCGKRGQVPGHASQGTQAVESSCSKAIGALSSSQKASSEGLSKGKKTANGLAADANFSNSKAPILSKYPYSSRSQENILQGFSLPNKEGVDQPVAVVMEDSSQHEALRCRVIKSSGREKPDSDDDLDIESFVTAKLVNTTITPEPEPKPQPNSREKVKSRGGTRTALFENDKNAAIENDSVKPTRPSSNAIEFPDANCAGVKNQRPFSPREALRSRAIIKPVIIDKDVKKIMGGSGTEVVLEKQKSTSKSVTSKVTSSITIYPSDSSGPRAVPSEAPRERHTSTSNIQVGPPELTAISNHVSSPLELSIHKHDITLQLTEAERVGDGSPKNRAEMVVSRSSILIKPSESVEKNSHVPPAETIRWKSHSASSDSRHITVRNAWKSKRDLKCSEDPPTGIGRNMEATNAYTQRPCTDFLELEQPRSQPSEQGARRVGNSGDAPELSPRRTQSSLTASEVLTRRDRMGGAITAASCNHSSSMEEGEDSTFVTSRRIHNPLEHSELPGKQGLPEPEPVWTEERLHPAKPYAEED
For B2, the binding entry is “binds”.

B3: C/EBPγ (protein, UniProt P53568 1-150)
chain: MSKLSQPATTPGVNGISVIHTQAHASGLQQVPQLVPAGPGGGGKAVPPSKQSKKSSPMDRNSDEYRQRRERNNMAVKKSRLKSKQKAQDTLQRVNQLKEENERLEAKIKLLTKELSVLKDLFLEHAHSLADNVQPISTETTATNSDNPGQ
On to B3, for which the binding entry is listed as “binds”.

B4: cavin-2/SDPR (protein, UniProt Q63918 1-418)
chain: MGEDAAQAEKFQHPNTDMLQEKPSSPSPMPSSTPSPSLNLGSTEEAIRDNSQVNAVTVHTLLDKLVNMLDAVRENQHNMEQRQINLEGSVKGIQNDLTKLSKYQASTSNTVSKLLEKSRKVSAHTRAVRERLERQCVQVKRLENNHAQLLRRNHFKVLIFQEESEIPASVFVKEPVPSAAEGKEELADENKSLEETLHNVDLSSDDELPRDEEALEDSAEEKMEESRAEKIKRSSLKKVDSLKKAFSRQNIEKKMNKLGTKIVSVERREKIKKSLTPNHQKASSGKSSPFKVSPLSFGRKKVREGESSVENETKLEDQMQEDREEGSFTEGLSEASLPSGLMEGSAEDAEKSARRGNNSAVGSNADLTIEEDEEEEPVALQQAQQVRYESGYMLNSEEMEEPSEKQVQPAVLHVDQTA
Turning to B4, the binding entry is “binds”.

B5: cavin-4/MURC (protein, UniProt A2AMM0 1-362)
chain: MEHNGSASNAGKIHQNRLSSVTEDEDQDAALTIVTVLDRVASVVDSVQASQKRIEERHREMGNAIKSVQIDLLKLSQSHSNTGYVVNKLFEKTRKVSAHIKDVKARVEKQQVRVTKVETKQEEIMKKNKFRVVIFQEDIPCPASLSVVKDRSLPENQEEAEEVFDPPIELSSDEEYYVEESRSARLRKSGKEHIDHIKKAFSRENMQKTRQTLDKKVSGIRTRIVTPERRERLRQSGERLRQSGERLRQSGERFKKSISSAAPSKEAFKIRSLRKAKDPKAEGQEVDRGMGVDIISGSLALGPIHEFHSDEFSETEKEVTKGGYSPQEGGDPPTPEPLKVTFKPQVRVEDDESLLLELKQSS
For the molecule B5, the binding result was “binds”.

B6: cavin-1/PTRF (protein, UniProt O54724 1-392)
chain: MEDVTLHIVERPYSGFPDASSEGPEPTQGEARATEEPSGTGSDELIKSDQVNGVLVLSLLDKIIGAVDQIQLTQAQLEERQAEMEGAVQSIQGELSKLGKAHATTSNTVSKLLEKVRKVSVNVKTVRGSLERQAGQIKKLEVNEAELLRRRNFKVMIYQDEVKLPAKLSVSKSLKESEALPEKEGDELGEGERPEDDTAAIELSSDEAVEVEEVIEESRAERIKRSGLRRVDDFKKAFSKEKMEKTKVRTRENLEKTRLKTKENLEKTRHTLEKRMNKLGTRLVPVERREKLKTSRDKLRKSFTPDHVVYARSKTAVYKVPPFTFHVKKIREGEVEVLKATEMVEVGPEDDEVGAERGEATDLLRGSSPDVHTLLEITEESDAVLVDKSDSD
In the case of B6, the binding entry is recorded as “binds”.

B7: syncoilin (protein, UniProt Q9EPM5 1-470)
chain: MASPEPLRGGDGARASREPHTEASFPLQESESPKEAKTFNPEATLSLEGTVNLEDILYLGASGDFEESFYEEEYEKPALTLFIDESRQPDEALGLEEPVRPEEMLSVEESVTPDEVQISEQPVEPAKSPTACEGEMVATEGSLPAQPIPNTEEDPLSVEDLERLEARFQQCVQAVSQLEEERDQLIHELVLLREPALQEVQQVHQDILAAYKLHAQAELERDGLREEIRTVKQKLFKVTKECVAYQYQLECRQQDVAQFADCREALTTRAAQLSEELTQLRDACQKQKEQLQQQLEAPPTQSDGHFLQESRRLSTQFENLMAESRQGLEEEYEPQLLRLLERKEAGTKALQDTQAEIQEMREALRPLEAEARQLQLQNRNLEDQITLVRQKRDEEVQQYREQLEEMEERQRQLRSGVQVQQQKNKEMERLRMSLAEELSTYKAMLPKSLEQADAPTSQAGGVEAQSPGTV
On to B7, for which the binding result is “binds”.
